Among the data in article PMC8350011, “Interactions between semaphorins and plexin–neuropilin receptor complexes in the membranes of live cells” (The Journal of Biological Chemistry, 2021) are binding values, retold here.

By UniProt entry, the sequences of proteins in these tests, tags left out. Residues count along the entry.
UniProt Q9HCM2, residues 24-1894: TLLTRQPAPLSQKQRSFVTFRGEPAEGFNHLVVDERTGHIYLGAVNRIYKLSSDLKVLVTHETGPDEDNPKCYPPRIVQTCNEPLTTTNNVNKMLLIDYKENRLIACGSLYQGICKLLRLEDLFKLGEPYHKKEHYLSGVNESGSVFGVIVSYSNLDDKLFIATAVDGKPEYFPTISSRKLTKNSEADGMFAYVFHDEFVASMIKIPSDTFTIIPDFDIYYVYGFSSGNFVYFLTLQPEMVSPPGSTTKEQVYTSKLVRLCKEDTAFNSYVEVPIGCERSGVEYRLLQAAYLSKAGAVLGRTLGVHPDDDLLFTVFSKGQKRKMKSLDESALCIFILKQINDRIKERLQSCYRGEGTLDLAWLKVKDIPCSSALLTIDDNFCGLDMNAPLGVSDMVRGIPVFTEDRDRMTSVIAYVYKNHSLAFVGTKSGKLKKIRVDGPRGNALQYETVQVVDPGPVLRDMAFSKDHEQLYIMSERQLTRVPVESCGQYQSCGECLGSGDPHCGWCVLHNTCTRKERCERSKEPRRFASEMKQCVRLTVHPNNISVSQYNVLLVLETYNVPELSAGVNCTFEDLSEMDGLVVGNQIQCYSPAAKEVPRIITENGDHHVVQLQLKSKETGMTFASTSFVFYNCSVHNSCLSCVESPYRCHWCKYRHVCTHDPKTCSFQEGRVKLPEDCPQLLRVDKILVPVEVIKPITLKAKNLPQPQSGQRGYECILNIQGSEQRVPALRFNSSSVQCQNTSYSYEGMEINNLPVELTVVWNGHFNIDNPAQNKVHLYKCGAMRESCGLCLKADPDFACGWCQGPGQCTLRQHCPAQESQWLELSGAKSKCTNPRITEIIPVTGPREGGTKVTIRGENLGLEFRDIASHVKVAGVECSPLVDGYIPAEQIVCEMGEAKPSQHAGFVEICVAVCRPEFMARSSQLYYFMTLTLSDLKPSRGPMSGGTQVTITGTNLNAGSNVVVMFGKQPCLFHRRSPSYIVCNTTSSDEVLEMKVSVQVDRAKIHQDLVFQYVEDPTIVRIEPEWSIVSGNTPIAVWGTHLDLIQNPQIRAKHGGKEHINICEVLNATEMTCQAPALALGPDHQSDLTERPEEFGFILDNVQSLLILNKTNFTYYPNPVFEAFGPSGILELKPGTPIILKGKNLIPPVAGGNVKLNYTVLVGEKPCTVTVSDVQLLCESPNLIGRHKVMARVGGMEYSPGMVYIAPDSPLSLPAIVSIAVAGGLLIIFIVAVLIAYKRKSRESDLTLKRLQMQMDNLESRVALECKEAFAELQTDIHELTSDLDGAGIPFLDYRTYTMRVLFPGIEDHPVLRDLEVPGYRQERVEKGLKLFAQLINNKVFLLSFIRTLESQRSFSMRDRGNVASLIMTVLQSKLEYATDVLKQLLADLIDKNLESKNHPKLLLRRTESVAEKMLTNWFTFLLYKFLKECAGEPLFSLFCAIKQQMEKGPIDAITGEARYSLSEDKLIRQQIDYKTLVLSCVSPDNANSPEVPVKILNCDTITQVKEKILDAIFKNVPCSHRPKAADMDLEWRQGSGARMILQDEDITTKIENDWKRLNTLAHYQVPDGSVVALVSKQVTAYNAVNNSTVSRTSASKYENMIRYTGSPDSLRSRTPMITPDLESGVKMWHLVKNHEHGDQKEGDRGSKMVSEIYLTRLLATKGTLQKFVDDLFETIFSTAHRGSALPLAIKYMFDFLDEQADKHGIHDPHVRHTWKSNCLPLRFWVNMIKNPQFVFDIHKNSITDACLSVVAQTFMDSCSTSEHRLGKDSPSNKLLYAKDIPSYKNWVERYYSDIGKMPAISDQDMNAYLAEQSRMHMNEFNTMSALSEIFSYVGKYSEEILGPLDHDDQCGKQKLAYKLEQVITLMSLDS

The target in assay [1] is T1, plexin A4 (human, UniProt Q9HCM2 24-1894).
T1 construct: Two constructs (eGFP and mCherry fusions); The N1 vectors probably put the fluorescent protein at the C-terminus; also called plexin A4-eGFP; plexin A4-mCh; source: Cos-7, transiently transfected, in the membrane of live cells
Nature of the assay: PIE-FCCS (pulsed-interleaved excitation fluorescence cross-correlation spectroscopy); single live Cos-7 cells co-expressing eGFP and mCherry fusions, with 500 ng/ml recombinant human semaphorin 3A in imaging media, data taken 10 to 70 min after addition.

Assay [2] concerns the target T1, plexin A4. Nature of the assay: PIE-FCCS (pulsed-interleaved excitation fluorescence cross-correlation spectroscopy); single live Cos-7 cells co-expressing eGFP and mCherry fusions, with 500 ng/ml recombinant human semaphorin 3C in imaging media, data taken 10 to 70 min after addition.
The target of assay [3] is plexin A2 (human) (UniProt O75051). Nature of the assay: PIE-FCCS (pulsed-interleaved excitation fluorescence cross-correlation spectroscopy); single live Cos-7 cells co-expressing eGFP and mCherry fusions, with 500 ng/ml recombinant human semaphorin 3A in imaging media, data taken 10 to 70 min after addition.
Assay [4] has the same target. Nature of the assay: PIE-FCCS (pulsed-interleaved excitation fluorescence cross-correlation spectroscopy); single live Cos-7 cells co-expressing eGFP and mCherry fusions, with 500 ng/ml recombinant human semaphorin 3C in imaging media, data taken 10 to 70 min after addition.

Results are given in words; binding and its absence hold for the method and conditions named. Some binding calls cover weakened binding; strength is not graded here.

For “plexin A4 (from UniProt Q9HCM2 24-1894) (receptor)”, the binding entry with plexin A4 [1] and with plexin A4 [2] was “binds” in each case.

B1: plexin A2 (receptor, human, UniProt O75051 35-1894, looked up)
chain: MPQFSTFHSENRDWTFNHLTVHQGTGAVYVGAINRVYKLTGNLTIQVAHKTGPEEDNKSCYPPLIVQPCSEVLTLTNNVNKLLIIDYSENRLLACGSLYQGVCKLLRLDDLFILVEPSHKKEHYLSSVNKTGTMYGVIVRSEGEDGKLFIGTAVDGKQDYFPTLSSRKLPRDPESSAMLDYELHSDFVSSLIKIPSDTLALVSHFDIFYIYGFASGGFVYFLTVQPETPEGVAINSAGDLFYTSRIVRLCKDDPKFHSYVSLPFGCTRAGVEYRLLQAAYLAKPGDSLAQAFNITSQDDVLFAIFSKGQKQYHHPPDDSALCAFPIRAINLQIKERLQSCYQGEGNLELNWLLGKDVQCTKAPVPIDDNFCGLDINQPLGGSTPVEGLTLYTTSRDRMTSVASYVYNGYSVVFVGTKSGKLKKIRADGPPHGGVQYEMVSVLKDGSPILRDMAFSIDQRYLYVMSERQVTRVPVESCEQYTTCGECLSSGDPHCGWCALHNMCSRRDKCQQAWEPNRFAASISQCVSLAVHPSSISVSEHSRLLSLVVSDAPDLSAGIACAFGNLTEVEGQVSGSQVICISPGPKDVPVIPLDQDWFGLELQLRSKETGKIFVSTEFKFYNCSAHQLCLSCVNSAFRCHWCKYRNLCTHDPTTCSFQEGRINISEDCPQLVPTEEILIPVGEVKPITLKARNLPQPQSGQRGYECVLNIQGAIHRVPALRFNSSSVQCQNSSYQYDGMDISNLAVDFAVVWNGNFIIDNPQDLKVHLYKCAAQRESCGLCLKADRKFECGWCSGERRCTLHQHCTSPSSPWLDWSSHNVKCSNPQITEILTVSGPPEGGTRVTIHGVNLGLDFSEIAHHVQVAGVPCTPLPGEYIIAEQIVCEMGHALVGTTSGPVRLCIGECKPEFMTKSHQQYTFVNPSVLSLNPIRGPESGGTMVTITGHYLGAGSSVAVYLGNQTCEFYGRSMSEIVCVSPPSSNGLGPVPVSVSVDRAHVDSNLQFEYIDDPRVQRIEPEWSIASGHTPLTITGFNLDVIQEPRIRVKFNGKESVNVCKVVNTTTLTCLAPSLTTDYRPGLDTVERPDEFGFVFNNVQSLLIYNDTKFIYYPNPTFELLSPTGVLDQKPGSPIILKGKNLCPPASGGAKLNYTVLIGETPCAVTVSETQLLCEPPNLTGQHKVMVHVGGMVFSPGSVSVISDSLLTLPAIVSIAAGGSLLLIIVIIVLIAYKRKSRENDLTLKRLQMQMDNLESRVALECKEAFAELQTDINELTSDLDRSGIPYLDYRTYAMRVLFPGIEDHPVLRELEVQGNGQQHVEKALKLFAQLINNKVFLLTFIRTLELQRSFSMRDRGNVASLIMTGLQGRLEYATDVLKQLLSDLIDKNLENKNHPKLLLRRTESVAEKMLTNWFAFLLHKFLKECAGEPLFMLYCAIKQQMEKGPIDAITGEARYSLSEDKLIRQQIEYKTLILNCVNPDNENSPEIPVKVLNCDTITQVKEKILDAVYKNVPYSQRPRAVDMDLEWRQGRIARVVLQDEDITTKIEGDWKRLNTLMHYQVSDRSVVALVPKQTSSYNIPASASISRTSISRYDSSFRYTGSPDSLRSRAPMITPDLESGVKVWHLVKNHDHGDQKEGDRGSKMVSEIYLTRLLATKGTLQKFVDDLFETLFSTVHRGSALPLAIKYMFDFLDEQADRHSIHDTDVRHTWKSNCLPLRFWVNVIKNPQFVFDIHKGSITDACLSVVAQTFMDSCSTSEHRLGKDSPSNKLLYAKDIPSYKSWVERYYADIAKLPAISDQDMNAYLAEQSRLHAVEFNMLSALNEIYSYVSKYSEELIGALEQDEQARRQRLAYKVEQLINAMSIES
notes: Two constructs (pEGFP-N1 and pmCh-N1, EcoR1 and Kpn1 sites); the N1 vectors probably put the fluorescent protein at the C-terminus; also called plexin A2-eGFP; plexin A2-mCh; source: Cos-7, transiently transfected, in the membrane of live cells
On to B1, for which the binding entry in the assay with plexin A2 (human) [3], in the assay with plexin A2 (human) [4] and with plexin A4 [2] was “binds” in each case.
